Experimental data: PubChem BioAssay AID1259308 (NCATS, 2017)

Aim: 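Candidate targets for better recombinant protein yield in mammalian cells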 (primary screen)
Cell system: human HEK293 embryonic kidney cells stably expressing firefly luciferase (HEK-CMV-Luc2-Hygro)
Reagents: single siRNA against human genes, 0.8 pmol siRNA per well
Time to read-out: 72 h
Detection: 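Luciferase light (ONE-Glo) measured on one replicate plate set and viability (CellTiter-Glo) on the other, scaled to a negative control siRNA, with robust z-scores and luciferase per cell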
Direction: total luciferase, z-score and total luciferase, % of control: higher = more reporter protein produced
Call rule: 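Active when the median/MAD z-score for overall luciferase is greater than 3; a gene was taken forward for validation with new siRNAs if at least two of its three siRNAs passed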
Meaning of the calls: active = raised luciferase; inactive = no rise
The deposit covers about 59,000 reagents; below is an unselected part. Of all reagents, about 1,510 (2.6%) were called active. 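Calls use total luciferase alone and ignore viability, so some active siRNAs may act by altering cell number.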 A number with no mark means an inactive call. The numbers tell different reagents against one gene apart. Further read-outs or replicates are left out here.

target gene	reagent	total luciferase, z-score	total luciferase, % of control
P2RX7 (GeneID 5027)	1	0.142	84.7
P2RX7 (GeneID 5027)	2	-0.234	77.2
P2RX7 (GeneID 5027)	3	-1.85	45
GPRC6A (GeneID 222545)	1	0.0806	83.5
GPRC6A (GeneID 222545)	2	0.127	84.4
GPRC6A (GeneID 222545)	3	0.0708	83.3
RPS15 (GeneID 6209)	1	-2.52	31.8
RPS15 (GeneID 6209)	2	-1.84	45.3
RPS15 (GeneID 6209)	3	-0.679	68.4
STMN4 (GeneID 81551)	1	-1.94	43.2
STMN4 (GeneID 81551)	2	-1.29	56.3
STMN4 (GeneID 81551)	3	-0.545	71.1
SIRT7 (GeneID 51547)	1	-1.89	44.3
SIRT7 (GeneID 51547)	2	-0.0186	81.5
SIRT7 (GeneID 51547)	3	-0.701	67.9
TLR3 (GeneID 7098)	1	1.24	107
TLR3 (GeneID 7098)	2	-0.422	73.5
TLR3 (GeneID 7098)	3	-0.846	65.1
PXMP2 (GeneID 5827)	1	-0.518	71.6
PXMP2 (GeneID 5827)	2	-0.221	77.5
PXMP2 (GeneID 5827)	3	-0.757	66.8
INTS15 (GeneID 79034)	1	0.463	91.1
INTS15 (GeneID 79034)	2	1.22	106
INTS15 (GeneID 79034)	3	0.911	100
RHEB (GeneID 6009)	1	-0.51	71.7
RHEB (GeneID 6009)	2	-0.0751	80.4
RHEB (GeneID 6009)	3	-0.766	66.7
PSD2 (GeneID 84249)	1	-2.34	35.4
PSD2 (GeneID 84249)	2	-2.62	29.7
PSD2 (GeneID 84249)	3	1.53	112
GAL3ST3 (GeneID 89792)	1	0.471	91.2
GAL3ST3 (GeneID 89792)	2	1.03	102
GAL3ST3 (GeneID 89792)	3	-1.33	55.5
CDK2 (GeneID 1017)	1	-0.195	78
CDK2 (GeneID 1017)	2	1.57	113
CDK2 (GeneID 1017)	3	-0.914	63.7
TCP10L (GeneID 140290)	1	-1.44	53.3
TCP10L (GeneID 140290)	2	-0.518	71.6
TCP10L (GeneID 140290)	3	-0.0639	80.6
SEMA4C (GeneID 54910)	1	-0.0128	81.6
SEMA4C (GeneID 54910)	2	1.86	119
SEMA4C (GeneID 54910)	3	0.569	93.2
C4orf36 (GeneID 132989)	1	-0.329	75.3
C4orf36 (GeneID 132989)	2	0.746	96.7
C4orf36 (GeneID 132989)	3	-0.515	71.6
ZFAND1 (GeneID 79752)	1	1.83	118
ZFAND1 (GeneID 79752)	2	-1.62	49.7
ZFAND1 (GeneID 79752)	3	-1.69	48.2
SH2D4B (GeneID 387694)	1	0.834	98.5
SH2D4B (GeneID 387694)	2	-0.106	79.8
SH2D4B (GeneID 387694)	3	0.414	90.1
RDH16 (GeneID 8608)	1	-0.218	77.6
RDH16 (GeneID 8608)	2	0.472	91.3
RDH16 (GeneID 8608)	3	-0.585	70.2
DIAPH2 (GeneID 1730)	1	-0.651	68.9
DIAPH2 (GeneID 1730)	2	-1.1	60
DIAPH2 (GeneID 1730)	3	-0.561	70.7
